Measurements reported in PubChem BioAssay AID1259405 (NCATS, 2018).
In all, the deposit lists about 50,000 reagents; this is a part drawn at random. Over the whole deposit, about 4,000 (8%) were called active. 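Mouse siRNA library applied to hamster cells; one well for each siRNA.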 The numbers tell different reagents against one gene apart. Reagent sequences are not shown.

- Test: 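Silenced genes that increase secreted GFP made by CHO cells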 (primary screen)
- System: Chinese hamster CHO-K1 ovary cells with stable secreted eGFP expression
- Reagents: single siRNA against mouse genes, 0.8 pmol siRNA per well (2 µl of 400 nM stock)
- Timing: 3 days
- Measurement: 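Per-well intracellular GFP measured by laser scanning cytometry, plus viability from ATP luminescence, each relative to plate median of non-targeting control wells, in %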
- Scale: GFP, % of control: higher = more GFP per well, higher productivity; viability (ATP), % of control: higher = more viable cells (more ATP)
- Call rule: 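a knock-down is called active if GFP reaches 120% or more of non-targeting control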

target | reagent no. | GFP, % of control | viability (ATP), % of control | call
Plagl1 | 1 | 84.1 | 78.9 | inactive
Plagl1 | 2 | 84 | 74.2 | inactive
Plagl1 | 3 | 65 | 83.1 | inactive
Nod2 | 1 | 139 | 102 | active
Nod2 | 2 | 141 | 73.3 | active
Snx33 | 1 | 48.3 | 31.9 | inactive
Snx33 | 2 | 58.7 | 36.4 | inactive
Snx33 | 3 | 68.1 | 60.6 | inactive
Mtmr3 | 1 | 71.8 | 80.1 | inactive
Mtmr3 | 2 | 68.7 | 87.3 | inactive
Mtmr3 | 3 | 68.3 | 87.6 | inactive
Alox5ap | 1 | 111 | 122 | inactive
Alox5ap | 2 | 53.9 | 62.7 | inactive
Or6c5c | 1 | 65.7 | 62.6 | inactive
Or6c5c | 2 | 79.4 | 81.7 | inactive
Or6c5c | 3 | 118 | 90.5 | inactive
Slc6a15 | 1 | 73.5 | 34.9 | inactive
Slc6a15 | 2 | 55.1 | 54.8 | inactive
Slc6a15 | 3 | 75.3 | 78.4 | inactive
Ucp1 | 1 | 101 | 65.1 | inactive
Ucp1 | 2 | 81.8 | 75.3 | inactive
Ucp1 | 3 | 69.6 | 76.3 | inactive
Cyp2c37 | 1 | 111 | 48.1 | inactive
Cyp2c37 | 2 | 153 | 98 | active
Cyp2c37 | 3 | 101 | 60.1 | inactive
Fbxo27 | 1 | 119 | 73.1 | inactive
Fbxo27 | 2 | 109 | 79 | inactive
Pcdhgb8 | 1 | 63 | 58.6 | inactive
Pcdhgb8 | 2 | 35.7 | 48.5 | inactive
Pcdhgb8 | 3 | 59.6 | 64.5 | inactive
Zfyve27 | 1 | 75.9 | 69.2 | inactive
Zfyve27 | 2 | 69.7 | 51.9 | inactive
Zfyve27 | 3 | 79.7 | 96.6 | inactive
Gbx1 | 1 | 135 | 50.5 | active
Gbx1 | 2 | 71.4 | 68.7 | inactive
Gbx1 | 3 | 73 | 66.6 | inactive
Rgs12 | 1 | 52.9 | 49 | inactive
Rgs12 | 2 | 75.4 | 83.4 | inactive
Rgs12 | 3 | 81.2 | 75.3 | inactive
Skint9 | 1 | 63.8 | 52.7 | inactive
Skint9 | 2 | 43.5 | 52.3 | inactive
Skint9 | 3 | 78.2 | 97.1 | inactive
Olig2 | 1 | 101 | 121 | inactive
Olig2 | 2 | 109 | 105 | inactive
Olig2 | 3 | 77.4 | 108 | inactive
Ndufa7 | 1 | 41.4 | 60.5 | inactive
Ndufa7 | 2 | 49 | 38.3 | inactive
Shisa7 | 1 | 81.3 | 55.7 | inactive
Shisa7 | 2 | 93.4 | 77.9 | inactive
Shisa7 | 3 | 101 | 67.8 | inactive
Zscan26 | 1 | 72.4 | 52.3 | inactive
Zscan26 | 2 | 71.7 | 87.1 | inactive
Zscan26 | 3 | 48.4 | 62.5 | inactive
Cldn10 | 1 | 70.3 | 59 | inactive
Cldn10 | 2 | 58.7 | 61.7 | inactive
Cldn10 | 3 | 111 | 114 | inactive
Pdk4 | 1 | 68 | 45.4 | inactive
Lrrc46 | 1 | 137 | 107 | active
Lrrc46 | 2 | 132 | 56.4 | active
Lrrc46 | 3 | 112 | 73.1 | inactive
Bptf | 1 | 67.6 | 34.5 | inactive
Bptf | 2 | 82.4 | 75.6 | inactive
Bptf | 3 | 48.5 | 42.2 | inactive
Or12d15 | 1 | 84.7 | 58.9 | inactive
Or12d15 | 2 | 99.2 | 54.5 | inactive
Or12d15 | 3 | 62.3 | 81.1 | inactive
Krtap4-16 | 1 | 73.8 | 61 | inactive
Krtap4-16 | 2 | 45.7 | 55.6 | inactive
Krtap4-16 | 3 | 103 | 73.7 | inactive
Glo1 | 1 | 71.5 | 80.4 | inactive
Glo1 | 2 | 63.2 | 66.8 | inactive
Glo1 | 3 | 78.5 | 63.9 | inactive
Gsta1 | 1 | 78.8 | 112 | inactive
Gsta1 | 2 | 82.3 | 107 | inactive
Gsta1 | 3 | 76.6 | 63.5 | inactive
Cbln4 | 1 | 68 | 52.2 | inactive
Cbln4 | 2 | 45.2 | 68.1 | inactive
Cbln4 | 3 | 31.7 | 38 | inactive
Dock5 | 1 | 49.2 | 50.8 | inactive
Dock5 | 2 | 78.6 | 97.4 | inactive
Dock5 | 3 | 84.6 | 59 | inactive
Elmo2 | 1 | 70.6 | 72.8 | inactive
Elmo2 | 2 | 110 | 111 | inactive
Elmo2 | 3 | 63.3 | 66 | inactive
